Assay results published in PMC4376871.
No constants are given. Whether binding was seen depends on the method and setting. Tags and fused reporters may be left off the sequences shown.

Molecular target: T1, Kinase-dead AtSK22K99R fused to the GAL4 DNA binding domain (Arabidopsis thaliana (ecotype Sei-0 cDNA)) (UniProt Q39012)
T1 sequence: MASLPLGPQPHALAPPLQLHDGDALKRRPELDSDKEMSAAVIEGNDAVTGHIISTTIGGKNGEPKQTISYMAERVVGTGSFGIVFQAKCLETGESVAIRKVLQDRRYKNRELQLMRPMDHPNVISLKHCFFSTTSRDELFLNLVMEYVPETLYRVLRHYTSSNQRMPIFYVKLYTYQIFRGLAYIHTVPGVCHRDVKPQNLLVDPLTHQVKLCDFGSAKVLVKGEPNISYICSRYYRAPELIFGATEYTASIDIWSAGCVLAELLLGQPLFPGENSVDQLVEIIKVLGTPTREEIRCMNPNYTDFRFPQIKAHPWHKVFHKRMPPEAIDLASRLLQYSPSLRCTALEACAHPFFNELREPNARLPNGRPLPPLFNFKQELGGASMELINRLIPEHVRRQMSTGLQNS
Assay: two-hybrid; yeast Y187; C4 or C4 mutants on AD, AtSKs on DBD; quantitative ß-galactosidase activity (Galacto-Star, chemiluminescence) relative to the C4/AtSK23 interaction

Beet curly top virus (BCTV-B[US:Logan:76]) C4 protein fused to the GAL4 activation domain
binding: no binding
